The match of structure and compound is tentative. Bounds are passed on as bounds.

Protein sequences, listed by entry. Tags and fused reporters are not part of them. Residues count along the entry.
UniProt O76083, 1-533 isoform 2: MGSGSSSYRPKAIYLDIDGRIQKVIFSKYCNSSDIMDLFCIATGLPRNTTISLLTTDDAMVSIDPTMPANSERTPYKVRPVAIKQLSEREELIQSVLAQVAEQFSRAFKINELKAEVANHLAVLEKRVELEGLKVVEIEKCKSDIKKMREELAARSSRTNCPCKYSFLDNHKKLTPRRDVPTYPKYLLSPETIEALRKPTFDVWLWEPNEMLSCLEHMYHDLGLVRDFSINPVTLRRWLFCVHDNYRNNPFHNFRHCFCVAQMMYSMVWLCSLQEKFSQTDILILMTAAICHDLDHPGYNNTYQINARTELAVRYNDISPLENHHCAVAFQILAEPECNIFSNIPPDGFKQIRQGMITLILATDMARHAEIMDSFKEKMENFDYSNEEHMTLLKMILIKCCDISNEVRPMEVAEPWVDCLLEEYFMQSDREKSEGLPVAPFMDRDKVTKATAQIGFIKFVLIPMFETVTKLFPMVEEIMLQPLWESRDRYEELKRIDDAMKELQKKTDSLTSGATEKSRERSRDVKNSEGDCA
UniProt Q13547, whole entry: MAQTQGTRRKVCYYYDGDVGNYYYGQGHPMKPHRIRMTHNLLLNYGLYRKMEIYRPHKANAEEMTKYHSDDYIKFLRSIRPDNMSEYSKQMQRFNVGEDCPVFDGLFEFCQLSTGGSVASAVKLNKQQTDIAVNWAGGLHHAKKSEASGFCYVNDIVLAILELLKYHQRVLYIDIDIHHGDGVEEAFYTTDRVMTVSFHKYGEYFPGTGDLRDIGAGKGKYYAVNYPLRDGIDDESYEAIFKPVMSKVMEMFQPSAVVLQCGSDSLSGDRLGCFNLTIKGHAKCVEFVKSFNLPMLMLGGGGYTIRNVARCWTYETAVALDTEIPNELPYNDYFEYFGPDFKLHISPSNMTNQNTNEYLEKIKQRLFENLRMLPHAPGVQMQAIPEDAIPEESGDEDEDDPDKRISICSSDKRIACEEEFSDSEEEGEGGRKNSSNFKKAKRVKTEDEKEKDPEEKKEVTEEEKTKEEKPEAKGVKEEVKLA

Format in all cases: biochemical
One assay addresses PDE5A (Homo sapiens, UniProt O76074). Description: PDE enzyme activity assay (HTRF cGMP), PDE5A. The note with it: read-out: PDE5A1 inhibition (IC50); recombinant enzyme.
The target of the next assay is PDE9A isoform b (Homo sapiens, UniProt O76083). Put plainly: PDE enzyme activity assay (HTRF cGMP), PDE9A. To be noted: read-out: PDE9A inhibition (IC50); recombinant enzyme.
For the next assay, the target named is HDAC1 (Homo sapiens, UniProt Q13547). Description: HDAC enzyme activity assay (fluorogenic substrate), HDAC1. The note with it: read-out: HDAC1 inhibition (IC50); recombinant enzyme.

As to `C[C@@H]1CN(Cc2ccc(/C=C/C(=O)NO)cc2)C[C@H]1c1nc2c(cnn2C2CCOCC2)c(=O)[nH]1` (relative stereo), the IC50 on PDE5A was greater than 10000 nM; on PDE9A isoform b it was less than 10 nM; on HDAC1 it was 10 to 1000 nM.
